{"source": "patent US20070099247A1", "note": "No constants are given. Whether binding was seen depends on the method and setting. Some entries that bind do so weakly or less than the wild type."}
{"target": "Streptavidin (UniProt P22629)", "experiment": "flow cytometry"}
{"binder": "RLEICQNVCYYLGTL", "note": "[SEQ ID NO 232]", "binding": "binds"}
{"binder": "TVLICMNICWTGETQ", "note": "[SEQ ID NO 233]", "binding": "binds"}
{"binder": "ICSYVMYTTCFLRVY", "note": "[SEQ ID NO 234]", "binding": "binds"}
{"target": "Streptavidin (UniProt P22629)", "experiment": "clones isolated by MACS and FACS"}
{"binder": "VTSLCMNVCYSLTTY", "note": "[SA-4]", "binding": "binds"}
{"binder": "YWVCMNVCMYYTARQ", "note": "[SA-5]", "binding": "binds"}
{"binder": "LPVWCVMHVCLTSSR", "note": "[SA-6]", "binding": "binds"}
{"binder": "NEWYCQNVCERMPHS", "note": "[SA-7]", "binding": "binds"}
{"binder": "IMMECFYVCTIANTQ", "note": "[SA-8]", "binding": "binds"}
{"binder": "TWVQCTMVCYGMSTT", "note": "[SA-9]", "binding": "binds"}
{"binder": "SITICWYTCMVQKTA", "note": "[SA-10]", "binding": "binds"}
{"binder": "ADTICWYVCTISVHA", "note": "[SA-11]", "binding": "binds"}
{"target": "Streptavidin (UniProt P22629)", "experiment": "selected and sequenced clones"}
{"binder": "RLEICQNVCYYLGTL", "note": "[SEQ ID NO 235]", "binding": "binds"}
{"binder": "TVLICMNICWTGETQ", "note": "[SEQ ID NO 236]", "binding": "binds"}
{"binder": "ICSYVMYTTCFLRVY", "note": "[SEQ ID NO 237]", "binding": "binds"}
{"binder": "YWVCMNVCMYYTARQ", "note": "[SEQ ID NO 238]", "binding": "binds"}
{"binder": "LPVWCVMHVCLTSSR", "note": "[SEQ ID NO 239]", "binding": "binds"}
{"binder": "VTSLCMNVCYSLTTY", "note": "[SEQ ID NO 240]", "binding": "binds"}
{"binder": "NEWYCQNVCERMPHS", "note": "[SEQ ID NO 241]", "binding": "binds"}
{"binder": "TWVQCTMVCYGMSTT", "note": "[SEQ ID NO 242]", "binding": "binds"}
{"binder": "QVKLHPMAPVVPSHW", "note": "[SEQ ID NO 243]", "binding": "binds"}
{"binder": "ADTICWYVCTISVHA", "note": "[SEQ ID NO 244]", "binding": "binds"}
{"binder": "IMMECFYVCTIANTQ", "note": "[SEQ ID NO 245]", "binding": "binds"}
{"target": "Streptavidin (UniProt P22629)", "experiment": "selected and sequenced clones, OmpX loop 2 display"}
{"binder": "YCCHPQVCFLGHRAACP", "note": "[SEQ ID NO 267]", "binding": "binds"}
{"binder": "WCCHPQVCSLSLAYKCQ", "note": "[SEQ ID NO 268]", "binding": "binds"}
{"binder": "ICCHPQVCAWNRVFLCK", "note": "[SEQ ID NO 269]", "binding": "binds"}
{"binder": "ICCHPQVCSGLNRFRCG", "note": "[SEQ ID NO 270]", "binding": "binds"}
{"binder": "WCCHPQVCHRAMVRNCI", "note": "[SEQ ID NO 271]", "binding": "binds"}
{"binder": "ACCHPQVCVMALPYHCL", "note": "[SEQ ID NO 272]", "binding": "binds"}
{"binder": "LCCHPQVCASAGYYACY", "note": "[SEQ ID NO 273]", "binding": "binds"}
{"binder": "LCCHPQNCVSFRHVECR", "note": "[SEQ ID NO 274]", "binding": "binds"}
{"binder": "ICCHPQWCGLTVWWPCK", "note": "[SEQ ID NO 275]", "binding": "binds"}
{"binder": "QSLVCQNVCWMRE", "note": "[SEQ ID NO 276]", "binding": "binds"}
{"binder": "CMIICQNVCYRKC", "note": "[SEQ ID NO 277]", "binding": "binds"}
{"binder": "KALVCQNVCYTMS", "note": "[SEQ ID NO 278]", "binding": "binds"}
{"binder": "SKWICQNVCYPGL", "note": "[SEQ ID NO 279]", "binding": "binds"}
{"binder": "GTLVCMNFCYLSK", "note": "[SEQ ID NO 280]", "binding": "binds"}
{"binder": "PTLICMNVCFYDQ", "note": "[SEQ ID NO 281]", "binding": "binds"}
{"binder": "SHWFCVNVCFRIQ", "note": "[SEQ ID NO 282]", "binding": "binds"}
{"binder": "TYSWCANVCMHYS", "note": "[SEQ ID NO 283]", "binding": "binds"}
{"binder": "TRLICANLCWYAE", "note": "[SEQ ID NO 284]", "binding": "binds"}
